Source: publication PMC9646721, “Alkaloid binding to opium poppy major latex proteins triggers structural modification and functional aggregation” (Nature Communications, 2022)

Tests used:
[1] = Sucrose density-gradient fractionation of latex, relative abundance of BIAs in gradient fractions; set-up: species or system Papaver somniferum
PR10-12 [2] = assay: Isothermal titration calorimetry; assay type: binding, Papaver somniferum; settings: ITC, PBS pH 7.4, 25 °C
Description: ITC experiments were conducted using a Microcal VP instrument (Malvern Pananalytical, Malvern, UK). Recombinant MLP/PR10 protein preparation involving production in Escherichia coli followed by cobalt-affinity chromatography was optimized to yield relatively high purity in a single step as determined by SDS-PAGE and colloidal Coomassie blue silver staining. The less than 48 h decrease in atmospheric oxygen exposure generated high-quality proteins with reduced precipitate. […] Eluates were twice dialysed to equilibrium (i.e., 10–12 h at 4 °C) against a 1000-fold (2–4 L) volume of PBS, pH 7.4 (25 mM sodium phosphate, 50 mM NaCl) or CBS, pH 5.5, resulting in a theoretical million-fold dilution of undesired small molecules (e.g., <0.2 µM imidazole). Dialysis was carried out in boiled Spectra/Por 1 6–8 kDa MWCO 0.32 ml/cm (Spectrum Labs, USA) tubing thoroughly washed with either buffer before use. The second 1000-fold volume of dialysis buffer was filtered and degassed using a reusable bottle-top filtration apparatus (Nalgene, USA) with disposable […] cellulose filters (VWR, Canada) prior to storage at 4 °C. Ligands were dissolved in the filtered dialysis buffer at 21 °C for approximately one hour, and any insoluble material was removed by repeated centrifugation at 21,000 × g for 10 min. No change in pH occurred following substrate addition. Prior to ITC, which was initiated immediately following dialysis, the protein solutions were centrifuged at 17,000 × g and 4 °C for 30 min. Any precipitate was separated from the remaining soluble protein fraction which was quantified by absorption at A280nm and diluted with filtered dialysis buffer immediately before use.
Thermograms were recorded at 25 °C, with a reference power of 10 (dpu/sec) and monitoring of 30 injections of 9 µl BIA ligand solutions into a sample cell containing 1.4 ml of an MLP/PR10 protein solution, with 300 seconds between injections. Protein concentrations varied from 10 to 150 µM to achieve an optimal C value and curve shape valid for parameter calculation. […] To ensure that we report only the heat of reaction for each interaction, independent titrations of ligand into buffer, and buffer into protein solutions, were used to calculate and then subtract heats of dilution. After subtraction, binding isotherms were analyzed in MicroCal Origin 7 (MicroCal, USA) by fitting a single-site binding model using non-linear least squares regression analysis repeated until convergence. […] Each ITC experiment was repeated 2 to 4 times.

MLP2 = assay: ANS displacement assay; assay type: binding, Papaver somniferum; settings: ANS displacement dose-response fit
Description: (§1) Eluates were store separately on ice.
(§2) Displacement of ANS is associated with reduced fluorescence.

PR10-4 = assay: ANS displacement assay; assay type: binding, Papaver somniferum; settings: ANS displacement dose-response fit
Description: as §1, §2

PR10-12 [3] = assay: ANS displacement assay; assay type: binding, Papaver somniferum; settings: ANS displacement dose-response fit
Description: as §1, §2

SMILES: COC1=CC=C2[C@H]3Cc4ccc(OC)c5c4[C@@]2(CCN3C)[C@H]1O5 [Thebaine, thebaine]
- Alkaloid concentration in sucrose density-gradient fraction ([1]; Cultivar 40, fraction 1): 1.704 mM
- Alkaloid concentration in sucrose density-gradient fraction ([1]; Cultivar 40, fraction 2): 1.146 mM
- Alkaloid concentration in sucrose density-gradient fraction ([1]; Cultivar 40, fraction 3): 0.414 mM
- Alkaloid concentration in sucrose density-gradient fraction ([1]; Cultivar 40, fraction 4): 0.200 mM
- Alkaloid concentration in sucrose density-gradient fraction ([1]; Cultivar 40, fraction 5): 0.137 mM
- Alkaloid concentration in sucrose density-gradient fraction ([1]; Cultivar 40, fraction 6): 0.089 mM
- Alkaloid concentration in sucrose density-gradient fraction ([1]; Cultivar 40, fraction 7): 0.069 mM
- Alkaloid concentration in sucrose density-gradient fraction ([1]; Cultivar 40, fraction 8): 0.056 mM
- Alkaloid concentration in sucrose density-gradient fraction ([1]; Cultivar 40, fraction 9): 0.065 mM
- Alkaloid concentration in sucrose density-gradient fraction ([1]; Cultivar 40, fraction 10): 0.079 mM
- Alkaloid concentration in sucrose density-gradient fraction ([1]; Cultivar 40, fraction 11): 0.084 mM
- Alkaloid concentration in sucrose density-gradient fraction ([1]; Cultivar 40, fraction 12): 0.081 mM
- Alkaloid concentration in sucrose density-gradient fraction ([1]; Cultivar 40, fraction 13): 0.138 mM
- Alkaloid concentration in sucrose density-gradient fraction ([1]; Cultivar 40, fraction 14): 0.153 mM
- Alkaloid concentration in sucrose density-gradient fraction ([1]; Cultivar 40, fraction 15): 0.147 mM
- Alkaloid concentration in sucrose density-gradient fraction ([1]; Cultivar 40, fraction 16): 0.128 mM
- Alkaloid concentration in sucrose density-gradient fraction ([1]; Cultivar 40, fraction 17): 0.096 mM
- Alkaloid concentration in sucrose density-gradient fraction ([1]; Cultivar 40, fraction 18): 0.067 mM
- Alkaloid concentration in sucrose density-gradient fraction ([1]; Cultivar 40, fraction 19): 0.054 mM
- Alkaloid concentration in sucrose density-gradient fraction ([1]; Cultivar 40, fraction 20): 0.106 mM
- Alkaloid concentration in sucrose density-gradient fraction ([1]; Cultivar 40, fraction 21): 0.076 mM
- Alkaloid concentration in sucrose density-gradient fraction ([1]; Cultivar 40, fraction 22): 0.056 mM
- Alkaloid concentration in sucrose density-gradient fraction ([1]; Cultivar Roxanne, fraction 1): 0.540 mM
- Alkaloid concentration in sucrose density-gradient fraction ([1]; Cultivar Roxanne, fraction 2): 0.244 mM
- Alkaloid concentration in sucrose density-gradient fraction ([1]; Cultivar Roxanne, fraction 3): 0.059 mM
- Alkaloid concentration in sucrose density-gradient fraction ([1]; Cultivar Roxanne, fraction 4): 0.023 mM
- Alkaloid concentration in sucrose density-gradient fraction ([1]; Cultivar Roxanne, fraction 5): 0.024 mM
- Alkaloid concentration in sucrose density-gradient fraction ([1]; Cultivar Roxanne, fraction 6): 0.017 mM
- Alkaloid concentration in sucrose density-gradient fraction ([1]; Cultivar Roxanne, fraction 7): 0.013 mM
- Alkaloid concentration in sucrose density-gradient fraction ([1]; Cultivar Roxanne, fraction 8): 0.012 mM
- Alkaloid concentration in sucrose density-gradient fraction ([1]; Cultivar Roxanne, fraction 9): 0.010 mM
- Alkaloid concentration in sucrose density-gradient fraction ([1]; Cultivar Roxanne, fraction 10): 0.010 mM
- Alkaloid concentration in sucrose density-gradient fraction ([1]; Cultivar Roxanne, fraction 11): 0.00455 mM
- Alkaloid concentration in sucrose density-gradient fraction ([1]; Cultivar Roxanne, fraction 12): 0.013 mM
- Alkaloid concentration in sucrose density-gradient fraction ([1]; Cultivar Roxanne, fraction 13): 0.013 mM
- Alkaloid concentration in sucrose density-gradient fraction ([1]; Cultivar Roxanne, fraction 14): 0.017 mM
- Alkaloid concentration in sucrose density-gradient fraction ([1]; Cultivar Roxanne, fraction 15): 0.025 mM
- Alkaloid concentration in sucrose density-gradient fraction ([1]; Cultivar Roxanne, fraction 16): 0.034 mM
- Alkaloid concentration in sucrose density-gradient fraction ([1]; Cultivar Roxanne, fraction 17): 0.031 mM
- Alkaloid concentration in sucrose density-gradient fraction ([1]; Cultivar Roxanne, fraction 18): 0.029 mM
- Alkaloid concentration in sucrose density-gradient fraction ([1]; Cultivar Roxanne, fraction 19): 0.025 mM
- Alkaloid concentration in sucrose density-gradient fraction ([1]; Cultivar Roxanne, fraction 20): 0.022 mM
- Alkaloid concentration in sucrose density-gradient fraction ([1]; Cultivar Roxanne, fraction 21): 0.013 mM
- Alkaloid concentration in sucrose density-gradient fraction ([1]; Cultivar Roxanne, fraction 22): 0.027 mM
- Alkaloid concentration in sucrose density-gradient fraction ([1]; Cultivar T, fraction 1): 3.249 mM
- Alkaloid concentration in sucrose density-gradient fraction ([1]; Cultivar T, fraction 2): 4.190 mM
- Alkaloid concentration in sucrose density-gradient fraction ([1]; Cultivar T, fraction 3): 1.719 mM
- Alkaloid concentration in sucrose density-gradient fraction ([1]; Cultivar T, fraction 4): 0.913 mM
- Alkaloid concentration in sucrose density-gradient fraction ([1]; Cultivar T, fraction 5): 0.601 mM
- Alkaloid concentration in sucrose density-gradient fraction ([1]; Cultivar T, fraction 6): 0.461 mM
- Alkaloid concentration in sucrose density-gradient fraction ([1]; Cultivar T, fraction 7): 0.366 mM
- Alkaloid concentration in sucrose density-gradient fraction ([1]; Cultivar T, fraction 8): 0.329 mM
- Alkaloid concentration in sucrose density-gradient fraction ([1]; Cultivar T, fraction 9): 0.312 mM
- Alkaloid concentration in sucrose density-gradient fraction ([1]; Cultivar T, fraction 10): 0.304 mM
- Alkaloid concentration in sucrose density-gradient fraction ([1]; Cultivar T, fraction 11): 0.389 mM
- Alkaloid concentration in sucrose density-gradient fraction ([1]; Cultivar T, fraction 12): 0.503 mM
- Alkaloid concentration in sucrose density-gradient fraction ([1]; Cultivar T, fraction 13): 0.437 mM
- Alkaloid concentration in sucrose density-gradient fraction ([1]; Cultivar T, fraction 14): 0.528 mM
- Alkaloid concentration in sucrose density-gradient fraction ([1]; Cultivar T, fraction 15): 0.518 mM
- Alkaloid concentration in sucrose density-gradient fraction ([1]; Cultivar T, fraction 16): 0.558 mM
- Alkaloid concentration in sucrose density-gradient fraction ([1]; Cultivar T, fraction 17): 0.702 mM
- Alkaloid concentration in sucrose density-gradient fraction ([1]; Cultivar T, fraction 18): 0.699 mM
- Alkaloid concentration in sucrose density-gradient fraction ([1]; Cultivar T, fraction 19): 0.723 mM
- Alkaloid concentration in sucrose density-gradient fraction ([1]; Cultivar T, fraction 20): 0.585 mM
- Alkaloid concentration in sucrose density-gradient fraction ([1]; Cultivar T, fraction 21): 0.601 mM
- Alkaloid concentration in sucrose density-gradient fraction ([1]; Cultivar T, fraction 22): 0.734 mM
- ΔH (PR10-12 [2]): 5.348 ± 0.0821 kcal/mol
- ΔS (PR10-12 [2]): 39.3 cal/mol/˚K
- N (PR10-12 [2]; single-site model): 0.54 ± 0.00587
- Hill Slope (MLP2): -1.55 ± 0.61
- Hill Slope (PR10-4): -0.66 ± 0.26
- Hill Slope (PR10-12 [3]): -1.67 ± 0.70
